Reference: US12656341
No constants are given. Whether binding was seen depends on the method and setting. Some entries that bind do so weakly or less than the wild type. For some assays here: Tags and fused reporters may be left off the sequences shown. Values belong to the binder of their own block, whether it stands above or below them.

By UniProt entry, the sequences of proteins in these tests, tags left out. Residues count along the entry.
UniProt P05555, residues 17-1153: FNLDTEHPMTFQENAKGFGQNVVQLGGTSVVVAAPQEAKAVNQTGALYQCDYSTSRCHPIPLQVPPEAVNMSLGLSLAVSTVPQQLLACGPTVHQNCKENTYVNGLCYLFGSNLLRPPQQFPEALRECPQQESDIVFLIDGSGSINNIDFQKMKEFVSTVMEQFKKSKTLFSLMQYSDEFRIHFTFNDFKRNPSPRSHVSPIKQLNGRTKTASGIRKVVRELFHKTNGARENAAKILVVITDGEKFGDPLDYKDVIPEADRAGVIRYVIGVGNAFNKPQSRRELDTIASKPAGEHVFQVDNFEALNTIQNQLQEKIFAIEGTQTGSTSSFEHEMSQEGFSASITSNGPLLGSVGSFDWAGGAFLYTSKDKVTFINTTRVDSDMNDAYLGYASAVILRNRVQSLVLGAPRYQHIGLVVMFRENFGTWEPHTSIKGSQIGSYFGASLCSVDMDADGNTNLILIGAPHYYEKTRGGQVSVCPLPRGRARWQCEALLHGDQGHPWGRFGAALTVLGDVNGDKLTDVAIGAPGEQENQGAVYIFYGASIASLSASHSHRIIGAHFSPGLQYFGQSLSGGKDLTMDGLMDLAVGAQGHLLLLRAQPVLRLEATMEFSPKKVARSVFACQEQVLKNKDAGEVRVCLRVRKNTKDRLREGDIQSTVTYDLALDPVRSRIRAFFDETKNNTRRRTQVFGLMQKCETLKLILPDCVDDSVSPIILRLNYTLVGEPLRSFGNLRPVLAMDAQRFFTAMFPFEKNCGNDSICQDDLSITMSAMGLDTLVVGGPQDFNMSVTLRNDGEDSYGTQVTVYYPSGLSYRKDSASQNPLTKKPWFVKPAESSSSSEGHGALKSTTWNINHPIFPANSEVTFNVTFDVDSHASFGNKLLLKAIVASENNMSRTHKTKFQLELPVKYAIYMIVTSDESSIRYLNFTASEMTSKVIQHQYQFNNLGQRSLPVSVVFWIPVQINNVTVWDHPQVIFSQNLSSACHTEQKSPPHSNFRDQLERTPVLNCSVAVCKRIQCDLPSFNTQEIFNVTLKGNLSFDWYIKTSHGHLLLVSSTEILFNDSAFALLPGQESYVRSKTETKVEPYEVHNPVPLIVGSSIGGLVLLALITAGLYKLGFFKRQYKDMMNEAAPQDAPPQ

Experiments:
[1] = biological target: CD11b on murine myeloid-derived suppressor CD11b+Gr-1+ cells (MDSC) (murine) (UniProt P05555); assay: flow cytometry on CD11b+Gr-1+ cells, 500 nM VHH, FITC-anti-llama detection
[2] = biological target: CD11b on murine myeloid-derived suppressor CD11b+Gr-1+ cells (MDSC) (murine) (UniProt P05555); assay: flow cytometry, liposomes with different VHH to phospholipid ratios on murine CD11b+Gr-1+ cells
[3] = biological target: CD11b on murine myeloid-derived suppressor CD11b+Gr-1+ cells (MDSC) (murine) (UniProt P05555); assay: flow cytometry, FITC-dextran liposomes with post-inserted lipidated VHH on murine CD11b+Gr-1+ cells
[4] = biological target: CD11b on murine myeloid-derived suppressor CD11b+Gr-1+ cells (MDSC) (murine) (UniProt P05555); assay: flow cytometry, liposomes with different VHH to phospholipid ratios on murine CD11b+Gr-1+ cells (FIG. 9 legend)

binding [1]: binds
binding [2]: binds
binding [3]: binds
binding [4]: binds
B1: lipidated VHH DC13 (VHH DC13 conjugated to DMA-PEG-G5 by sortase A) (VHH)
VHH: QVQLQESGGGLVQAGGSHNLSCTASGITFSSLAMGWFRQTPGKEREFVANIMRSGSSVFYADSVRGRFTISRDNAKNTAHLQMNSLKPEDTAVYFCAATRGAWPAEYWGQGTQVTVSS

binding [1]: binds
B2: VHH DC13 (native, LPETG- and His6-tagged single-domain antibody) (VHH)
VHH: B1 VHH
